The list shows a part of the results. The calls rarely recur for the same compound in another form.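 Kinases were expressed as nanoluciferase fusions in K562 cells and luminescence was read every 4 h between 2 and 18 h as percent of control, DMSO set to 100% and a positive control to 0%. A time point counts as decreased when the signal drops significantly (2 sigma). The hit call is the authors' own, does not follow from the count of time points alone, and its rule is not shown.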
Tests used:
Test in all cases: kinase-Nluc reporter destabilization hit call (1 = scored as downregulated) (binary); higher = compound decreases kinase abundance
Details in all cases: K562; 2-18 h
[1] = biological target: IRAK3 (UniProt Q9Y616)
[2] = biological target: JAK1 (UniProt P23458)
[3] = biological target: LCK (UniProt P06239)
[4] = biological target: LIMK1 (UniProt P53667)
[5] = biological target: LIMK2 (UniProt P53671)
[6] = biological target: LMTK2 (UniProt Q8IWU2)
[7] = biological target: LYN (UniProt P07948)
[8] = biological target: MAP2K1 (UniProt Q02750)
[9] = biological target: MAP2K2 (UniProt P36507)
[10] = biological target: MAP4K2 (UniProt Q12851)

Amino acid sequences for entries named in this document (tags omitted). A change or cut given only in a name is not applied to a line headed by its entry.
UniProt Q9Y616: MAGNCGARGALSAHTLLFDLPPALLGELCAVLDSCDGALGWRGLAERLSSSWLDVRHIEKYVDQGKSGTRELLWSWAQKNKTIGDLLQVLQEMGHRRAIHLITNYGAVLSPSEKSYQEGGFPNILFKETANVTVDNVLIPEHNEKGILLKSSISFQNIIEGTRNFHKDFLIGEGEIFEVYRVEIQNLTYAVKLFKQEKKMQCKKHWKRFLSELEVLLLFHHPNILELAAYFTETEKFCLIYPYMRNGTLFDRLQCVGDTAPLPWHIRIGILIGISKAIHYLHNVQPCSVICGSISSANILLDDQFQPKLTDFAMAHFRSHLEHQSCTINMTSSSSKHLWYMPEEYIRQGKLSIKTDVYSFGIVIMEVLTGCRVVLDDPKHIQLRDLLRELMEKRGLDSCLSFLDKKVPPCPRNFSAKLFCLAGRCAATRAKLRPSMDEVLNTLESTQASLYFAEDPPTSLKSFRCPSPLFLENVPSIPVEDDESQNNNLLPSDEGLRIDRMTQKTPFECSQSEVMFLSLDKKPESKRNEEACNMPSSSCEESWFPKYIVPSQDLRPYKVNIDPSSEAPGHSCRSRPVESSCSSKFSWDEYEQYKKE
UniProt P23458: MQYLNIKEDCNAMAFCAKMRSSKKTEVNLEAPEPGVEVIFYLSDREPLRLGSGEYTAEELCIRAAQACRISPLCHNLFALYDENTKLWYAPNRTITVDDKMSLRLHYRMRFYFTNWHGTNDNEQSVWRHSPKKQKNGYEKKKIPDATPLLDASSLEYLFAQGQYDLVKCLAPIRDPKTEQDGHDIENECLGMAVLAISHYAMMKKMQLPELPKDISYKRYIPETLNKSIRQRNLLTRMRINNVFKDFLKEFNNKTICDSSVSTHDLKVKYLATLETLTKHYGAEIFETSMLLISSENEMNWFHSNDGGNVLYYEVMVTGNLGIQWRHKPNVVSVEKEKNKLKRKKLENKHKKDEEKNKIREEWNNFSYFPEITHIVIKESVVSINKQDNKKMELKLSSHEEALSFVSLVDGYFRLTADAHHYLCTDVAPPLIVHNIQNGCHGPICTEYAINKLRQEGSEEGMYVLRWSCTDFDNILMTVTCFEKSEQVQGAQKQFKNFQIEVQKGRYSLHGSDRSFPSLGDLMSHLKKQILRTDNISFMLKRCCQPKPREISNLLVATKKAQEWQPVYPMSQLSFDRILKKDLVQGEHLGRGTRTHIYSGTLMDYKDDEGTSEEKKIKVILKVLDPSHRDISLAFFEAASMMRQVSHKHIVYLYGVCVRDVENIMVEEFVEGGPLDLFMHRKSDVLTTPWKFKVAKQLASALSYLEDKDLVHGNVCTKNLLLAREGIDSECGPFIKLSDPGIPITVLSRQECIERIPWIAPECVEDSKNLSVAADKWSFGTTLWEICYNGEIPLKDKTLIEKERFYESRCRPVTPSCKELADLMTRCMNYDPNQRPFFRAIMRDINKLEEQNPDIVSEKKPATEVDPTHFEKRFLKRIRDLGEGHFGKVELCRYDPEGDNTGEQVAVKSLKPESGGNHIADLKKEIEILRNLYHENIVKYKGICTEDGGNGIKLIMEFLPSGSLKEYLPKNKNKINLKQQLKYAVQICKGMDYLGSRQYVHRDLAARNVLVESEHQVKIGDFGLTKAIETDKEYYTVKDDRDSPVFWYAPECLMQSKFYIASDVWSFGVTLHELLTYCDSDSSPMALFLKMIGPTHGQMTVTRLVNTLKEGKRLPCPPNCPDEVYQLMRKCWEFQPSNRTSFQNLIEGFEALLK
UniProt P06239: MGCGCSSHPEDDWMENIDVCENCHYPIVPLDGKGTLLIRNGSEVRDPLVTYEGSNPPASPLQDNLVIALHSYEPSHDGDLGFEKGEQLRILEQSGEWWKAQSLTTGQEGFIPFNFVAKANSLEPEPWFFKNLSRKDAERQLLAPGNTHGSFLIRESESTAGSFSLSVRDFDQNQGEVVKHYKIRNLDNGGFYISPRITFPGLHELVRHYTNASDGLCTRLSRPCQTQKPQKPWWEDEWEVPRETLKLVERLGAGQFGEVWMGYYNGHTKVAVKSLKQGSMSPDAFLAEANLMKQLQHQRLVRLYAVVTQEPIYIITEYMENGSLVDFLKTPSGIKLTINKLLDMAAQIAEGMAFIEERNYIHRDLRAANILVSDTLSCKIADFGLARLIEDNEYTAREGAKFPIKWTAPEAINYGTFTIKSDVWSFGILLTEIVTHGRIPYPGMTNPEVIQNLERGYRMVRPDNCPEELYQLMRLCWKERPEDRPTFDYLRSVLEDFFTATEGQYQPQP
UniProt P53667: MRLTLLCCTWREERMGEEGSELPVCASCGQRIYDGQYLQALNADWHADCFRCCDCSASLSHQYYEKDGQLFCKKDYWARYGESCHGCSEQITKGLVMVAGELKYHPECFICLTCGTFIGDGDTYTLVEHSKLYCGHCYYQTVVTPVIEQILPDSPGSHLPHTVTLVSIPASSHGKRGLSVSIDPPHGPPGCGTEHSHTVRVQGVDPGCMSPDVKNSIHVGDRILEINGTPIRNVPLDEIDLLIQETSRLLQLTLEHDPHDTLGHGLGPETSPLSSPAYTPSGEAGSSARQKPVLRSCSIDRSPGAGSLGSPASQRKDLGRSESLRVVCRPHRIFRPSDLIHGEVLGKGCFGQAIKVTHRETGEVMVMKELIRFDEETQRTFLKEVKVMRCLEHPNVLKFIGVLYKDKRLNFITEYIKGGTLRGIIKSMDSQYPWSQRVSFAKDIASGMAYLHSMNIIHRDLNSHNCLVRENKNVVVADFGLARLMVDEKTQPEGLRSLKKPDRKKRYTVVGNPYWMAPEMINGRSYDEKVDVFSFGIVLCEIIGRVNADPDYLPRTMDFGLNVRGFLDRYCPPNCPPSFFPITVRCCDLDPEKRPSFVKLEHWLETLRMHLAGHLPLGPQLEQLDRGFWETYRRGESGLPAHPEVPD
UniProt P53671: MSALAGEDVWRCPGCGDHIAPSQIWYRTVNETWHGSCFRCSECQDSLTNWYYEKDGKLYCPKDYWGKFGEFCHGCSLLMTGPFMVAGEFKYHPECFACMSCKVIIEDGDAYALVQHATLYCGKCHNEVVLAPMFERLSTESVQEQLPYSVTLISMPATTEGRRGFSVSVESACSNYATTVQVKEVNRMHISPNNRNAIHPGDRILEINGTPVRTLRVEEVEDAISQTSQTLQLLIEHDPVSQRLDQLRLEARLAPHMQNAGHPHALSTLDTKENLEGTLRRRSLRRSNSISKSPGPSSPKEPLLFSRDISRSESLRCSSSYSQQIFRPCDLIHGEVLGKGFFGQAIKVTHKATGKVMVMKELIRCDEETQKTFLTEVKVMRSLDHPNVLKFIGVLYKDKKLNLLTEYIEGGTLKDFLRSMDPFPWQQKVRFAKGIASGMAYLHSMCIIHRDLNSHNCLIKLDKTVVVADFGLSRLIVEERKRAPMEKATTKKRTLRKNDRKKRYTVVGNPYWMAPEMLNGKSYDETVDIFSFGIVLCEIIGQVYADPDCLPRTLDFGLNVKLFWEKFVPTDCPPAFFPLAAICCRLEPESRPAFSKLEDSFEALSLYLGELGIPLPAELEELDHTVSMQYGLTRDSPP
UniProt Q8IWU2: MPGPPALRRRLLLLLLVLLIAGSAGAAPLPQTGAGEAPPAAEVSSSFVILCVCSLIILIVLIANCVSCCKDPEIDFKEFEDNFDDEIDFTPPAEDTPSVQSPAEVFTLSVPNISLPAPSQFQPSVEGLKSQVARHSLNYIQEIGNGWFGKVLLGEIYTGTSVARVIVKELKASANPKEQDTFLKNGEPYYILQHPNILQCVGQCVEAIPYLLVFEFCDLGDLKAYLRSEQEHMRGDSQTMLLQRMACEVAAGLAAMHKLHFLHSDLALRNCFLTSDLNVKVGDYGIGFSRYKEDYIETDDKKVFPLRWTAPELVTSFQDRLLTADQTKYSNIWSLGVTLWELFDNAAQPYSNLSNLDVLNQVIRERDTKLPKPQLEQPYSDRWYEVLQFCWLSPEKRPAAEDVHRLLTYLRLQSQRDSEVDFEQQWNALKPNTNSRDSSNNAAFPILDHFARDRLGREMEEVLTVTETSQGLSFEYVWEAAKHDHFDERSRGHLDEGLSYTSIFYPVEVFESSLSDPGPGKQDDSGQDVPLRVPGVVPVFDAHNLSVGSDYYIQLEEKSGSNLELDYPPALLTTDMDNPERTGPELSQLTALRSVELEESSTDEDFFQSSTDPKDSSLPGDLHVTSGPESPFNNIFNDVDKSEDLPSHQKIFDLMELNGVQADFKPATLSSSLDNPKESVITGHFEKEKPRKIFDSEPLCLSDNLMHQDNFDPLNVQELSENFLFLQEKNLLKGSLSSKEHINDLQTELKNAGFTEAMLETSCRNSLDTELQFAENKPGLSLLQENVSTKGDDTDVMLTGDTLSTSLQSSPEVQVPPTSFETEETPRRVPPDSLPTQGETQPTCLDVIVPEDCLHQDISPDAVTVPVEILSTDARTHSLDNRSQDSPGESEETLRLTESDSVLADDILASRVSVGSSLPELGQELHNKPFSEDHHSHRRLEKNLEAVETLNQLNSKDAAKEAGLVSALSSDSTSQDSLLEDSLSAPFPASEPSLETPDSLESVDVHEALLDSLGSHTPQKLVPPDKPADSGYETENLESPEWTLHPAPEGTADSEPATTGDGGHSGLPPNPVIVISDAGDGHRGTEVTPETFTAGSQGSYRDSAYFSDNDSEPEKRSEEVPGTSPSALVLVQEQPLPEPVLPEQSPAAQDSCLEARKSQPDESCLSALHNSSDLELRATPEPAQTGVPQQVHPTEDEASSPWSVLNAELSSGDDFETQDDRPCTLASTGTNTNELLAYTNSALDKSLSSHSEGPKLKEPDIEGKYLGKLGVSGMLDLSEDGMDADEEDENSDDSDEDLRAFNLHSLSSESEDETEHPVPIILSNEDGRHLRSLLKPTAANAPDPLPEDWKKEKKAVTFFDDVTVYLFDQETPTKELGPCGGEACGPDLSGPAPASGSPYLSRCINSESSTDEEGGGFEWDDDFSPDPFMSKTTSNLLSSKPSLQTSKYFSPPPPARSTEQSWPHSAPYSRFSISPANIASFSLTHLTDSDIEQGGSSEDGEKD
UniProt P07948: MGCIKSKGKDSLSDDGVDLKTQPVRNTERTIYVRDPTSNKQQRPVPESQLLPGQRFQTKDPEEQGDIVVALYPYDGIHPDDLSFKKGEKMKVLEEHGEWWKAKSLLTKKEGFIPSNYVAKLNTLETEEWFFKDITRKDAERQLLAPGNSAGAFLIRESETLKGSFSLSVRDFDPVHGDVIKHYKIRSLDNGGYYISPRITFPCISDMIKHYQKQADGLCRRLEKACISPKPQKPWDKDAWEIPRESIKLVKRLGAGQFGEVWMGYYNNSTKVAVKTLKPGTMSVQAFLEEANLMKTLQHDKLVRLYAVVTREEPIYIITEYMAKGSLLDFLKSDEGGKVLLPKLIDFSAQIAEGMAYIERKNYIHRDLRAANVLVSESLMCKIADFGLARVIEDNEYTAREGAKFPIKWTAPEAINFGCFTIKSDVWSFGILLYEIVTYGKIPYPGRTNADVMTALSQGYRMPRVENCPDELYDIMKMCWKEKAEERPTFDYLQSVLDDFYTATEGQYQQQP
UniProt Q12851: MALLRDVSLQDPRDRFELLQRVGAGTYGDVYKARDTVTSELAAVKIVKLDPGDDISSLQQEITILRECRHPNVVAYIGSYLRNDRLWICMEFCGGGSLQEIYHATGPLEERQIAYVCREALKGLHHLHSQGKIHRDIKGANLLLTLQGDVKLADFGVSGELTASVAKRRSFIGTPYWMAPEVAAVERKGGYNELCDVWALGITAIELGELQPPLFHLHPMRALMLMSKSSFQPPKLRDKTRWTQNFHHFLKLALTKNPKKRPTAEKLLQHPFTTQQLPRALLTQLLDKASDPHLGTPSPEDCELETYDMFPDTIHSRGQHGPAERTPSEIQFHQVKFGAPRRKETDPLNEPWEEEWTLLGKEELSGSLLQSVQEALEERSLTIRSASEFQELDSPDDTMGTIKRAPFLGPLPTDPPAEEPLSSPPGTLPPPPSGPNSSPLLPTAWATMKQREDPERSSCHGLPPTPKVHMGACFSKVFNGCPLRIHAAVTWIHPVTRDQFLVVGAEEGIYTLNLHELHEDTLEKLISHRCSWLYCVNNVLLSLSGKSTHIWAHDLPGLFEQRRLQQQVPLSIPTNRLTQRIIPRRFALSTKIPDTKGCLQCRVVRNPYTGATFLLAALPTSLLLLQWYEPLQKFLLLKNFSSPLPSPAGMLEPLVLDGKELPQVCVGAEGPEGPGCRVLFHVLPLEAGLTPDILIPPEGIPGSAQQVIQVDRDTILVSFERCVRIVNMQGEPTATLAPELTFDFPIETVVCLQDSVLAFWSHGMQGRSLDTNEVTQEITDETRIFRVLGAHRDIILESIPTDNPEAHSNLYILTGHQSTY

SMILES	kinase-Nluc reporter destabilization hit call [1]	kinase-Nluc reporter destabilization hit call [2]	kinase-Nluc reporter destabilization hit call [3]	kinase-Nluc reporter destabilization hit call [4]	kinase-Nluc reporter destabilization hit call [5]	kinase-Nluc reporter destabilization hit call [6]	kinase-Nluc reporter destabilization hit call [7]	kinase-Nluc reporter destabilization hit call [8]	kinase-Nluc reporter destabilization hit call [9]	kinase-Nluc reporter destabilization hit call [10]
CC(C)n1ncnc1-c1cn2c(n1)-c1ccc(O[C@@H](C)C(N)=O)cc1OCC2 (10 µM)	inactive: 0	inactive: 0	inactive: 0	inactive: 0	inactive: 0	inactive: 0	inactive: 0	inactive: 0	inactive: 0	inactive: 0
O=C1Nc2ccc(I)cc2/C1=C/c1cc(Br)c(O)c(Br)c1 (10 µM)	inactive: 0	inactive: 0	inactive: 0	inactive: 0	inactive: 0	inactive: 0	inactive: 0	inactive: 0	inactive: 0	inactive: 0
CC(C)Oc1ccc(F)c(-c2cnc(N)c(C(=O)Nc3cnccc3N3CCC[C@@H](C(=O)O)C3)n2)c1 (2 µM)	inactive: 0	inactive: 0	inactive: 0	inactive: 0	inactive: 0	inactive: 0	inactive: 0	inactive: 0	inactive: 0	inactive: 0
C=CC(=O)Nc1cc(Nc2nccc(-c3cn(C)c4ccccc34)n2)c(OC)cc1OCCN(C)C [Rezivertinib] (2.5 µM)	inactive: 0	inactive: 0	inactive: 0	inactive: 0	inactive: 0	inactive: 0	inactive: 0	inactive: 0	inactive: 0	inactive: 0
Brc1ccc(CSc2nc3ccccc3o2)cc1 [BMP signaling agonist sb4] (10 µM)	inactive: 0	inactive: 0	inactive: 0	inactive: 0	inactive: 0	inactive: 0	inactive: 0	inactive: 0	inactive: 0	inactive: 0
O=c1cc(-c2ccccc2)oc2cc(O[C@@H]3O[C@H](CO[C@@H]4O[C@H](CO)[C@@H](O)[C@H](O)[C@H]4O)[C@@H](O)[C@H](O)[C@H]3O)c(O)c(O)c12 [Oroxin B] (10 µM)	inactive: 0	inactive: 0	inactive: 0	inactive: 0	inactive: 0	inactive: 0	inactive: 0	inactive: 0	inactive: 0	inactive: 0
Cc1cccc(/C=N/Nc2cc(N3CCOCC3)n3nc(-c4ccncc4)cc3n2)c1 (10 µM)	inactive: 0	active: 1	inactive: 0	inactive: 0	inactive: 0	inactive: 0	inactive: 0	inactive: 0	inactive: 0	inactive: 0
Cc1cc(Nc2cc(N)ncn2)c(=O)n2c1C(=O)NC21CCCCC1 [Tomivosertib] (10 µM)	inactive: 0	inactive: 0	inactive: 0	inactive: 0	inactive: 0	inactive: 0	inactive: 0	inactive: 0	inactive: 0	inactive: 0
CC(C)=CCC/C(C)=C/CC/C(C)=C/C=C/C(C)=C/C(=O)O [Peretinoin] (10 µM)	inactive: 0	inactive: 0	inactive: 0	inactive: 0	inactive: 0	inactive: 0	inactive: 0	inactive: 0	inactive: 0	inactive: 0
Cc1cc(C)cc(NC(N)=Nc2ccccc2C(F)(F)F)c1 (10 µM)	inactive: 0	inactive: 0	inactive: 0	inactive: 0	inactive: 0	inactive: 0	inactive: 0	inactive: 0	inactive: 0	inactive: 0
CCn1c(-c2nonc2N)nc2c(C#CC(C)(C)O)ncc(OC[C@H]3CCCNC3)c21 (10 µM)	inactive: 0	inactive: 0	inactive: 0	inactive: 0	inactive: 0	inactive: 0	inactive: 0	inactive: 0	inactive: 0	inactive: 0
COc1cc2ncnc(Nc3ccc(O)c(Br)c3)c2cc1OC (10 µM)	inactive: 0	inactive: 0	inactive: 0	inactive: 0	inactive: 0	inactive: 0	inactive: 0	inactive: 0	inactive: 0	inactive: 0
N#Cc1ccc2ncnc(NCCc3ccccc3)c2c1 [Senexin A] (10 µM)	inactive: 0	inactive: 0	inactive: 0	inactive: 0	inactive: 0	inactive: 0	inactive: 0	inactive: 0	inactive: 0	inactive: 0
CC1=C(C(=O)Nc2cc3cn[nH]c3cc2F)C(c2ccc(C(F)(F)F)cc2)CC(=O)N1 (stereo not given) (10 µM)	inactive: 0	inactive: 0	inactive: 0	inactive: 0	inactive: 0	inactive: 0	inactive: 0	inactive: 0	inactive: 0	inactive: 0
CCCn1/c(=N/C(=O)c2cccc(C(N)=O)c2)[nH]c2ccccc21 [Takinib] (10 µM)	inactive: 0	inactive: 0	inactive: 0	inactive: 0	inactive: 0	inactive: 0	inactive: 0	inactive: 0	inactive: 0	inactive: 0

Taken from above:
Under kinase-Nluc reporter destabilization hit call [8], `CC(C)n1ncnc1-c1cn2c(n1)-c1ccc(O[C@@H](C)C(N)=O)cc1OCC2` (10 µM) is listed with inactive: 0
Under kinase-Nluc reporter destabilization hit call [5], `C=CC(=O)Nc1cc(Nc2nccc(-c3cn(C)c4ccccc34)n2)c(OC)cc1OCCN(C)C` [Rezivertinib] (2.5 µM) is listed with inactive: 0

Reference: the supplement of paper PMC12823440, “Inhibitors supercharge kinase turnover through native proteolytic circuits” (Nature, 2025)
